From the supplement of paper PMC8728848
Some of the results follow.

Legend:
Test in all cases: glycan array binding signal (z-score within array); higher = stronger binding
Details in all cases: glycan notation: IUPAC condensed, linker removed
[1] = target: Neu5Ac(a2-3)Gal(b1-4)GlcNAc(b1-2)Man(a1-3)[Neu5Ac(a2-6)Gal(b1-4)GlcNAc(b1-2)Man(a1-6)]Man(b1-4)GlcNAc(b1-4)GlcNAc
How it was run: (§1)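 Glycan array binding is given as a within-array Z-score, which can be read as non-binding when negative. The arrays, 3228 of them, came from the Consortium for Functional Glycomics database and were retained only where the protein sequence was available. Z-scores were averaged across arrays of the same protein sequence at different concentrations or buffers and across linkers.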

[2] = target: Neu5Ac(a2-3)Gal(b1-4)GlcNAc(b1-2)[Neu5Ac(a2-3)Gal(b1-4)GlcNAc(b1-4)]Man(a1-3)[GlcNAc(b1-4)][Neu5Ac(a2-3)Gal(b1-4)GlcNAc(b1-2)[Neu5Ac(a2-3)Gal(b1-4)GlcNAc(b1-6)]Man(a1-6)]Man(b1-4)GlcNAc(b1-4)GlcNAc
How it was run: as §1

[3] = target: Neu5Ac(a2-3)Gal(b1-4)GlcNAc(b1-2)[Neu5Ac(a2-3)Gal(b1-4)GlcNAc(b1-4)]Man(a1-3)[GlcNAc(b1-4)][Neu5Ac(a2-3)Gal(b1-4)GlcNAc(b1-4)Man(a1-6)]Man(b1-4)GlcNAc(b1-4)GlcNAc
How it was run: as §1

[4] = target: Neu5Ac(a2-3)Gal(b1-4)GlcNAc(b1-2)[Neu5Ac(a2-3)Gal(b1-4)GlcNAc(b1-6)]Man(a1-6)[Neu5Ac(a2-3)Gal(b1-4)GlcNAc(b1-2)Man(a1-3)][GlcNAc(b1-4)]Man(b1-4)GlcNAc(b1-4)GlcNAc
How it was run: as §1

[5] = target: Neu5Ac(a2-3)Gal(b1-4)GlcNAc(b1-3)Gal
How it was run: as §1

[6] = target: Neu5Ac(a2-3)Gal(b1-4)GlcNAc(b1-3)Gal(b1-3)GlcNAc
How it was run: as §1

[7] = target: Neu5Ac(a2-3)Gal(b1-4)GlcNAc(b1-3)Gal(b1-4)GlcNAc
How it was run: as §1

[8] = target: Neu5Ac(a2-3)Gal(b1-4)GlcNAc(b1-3)Gal(b1-4)GlcNAc(b1-2)Man(a1-3)[Neu5Ac(a2-3)Gal(b1-4)GlcNAc(b1-3)Gal(b1-4)GlcNAc(b1-2)Man(a1-6)]Man(b1-4)GlcNAc(b1-4)GlcNAc
How it was run: as §1

[9] = target: Neu5Ac(a2-3)Gal(b1-4)GlcNAc(b1-3)Gal(b1-4)GlcNAc(b1-3)Gal(b1-4)GlcNAc
How it was run: as §1

[10] = target: Neu5Ac(a2-3)Gal(b1-4)GlcNAc(b1-3)Gal(b1-4)GlcNAc(b1-3)Gal(b1-4)GlcNAc(b1-2)Man(a1-3)[Neu5Ac(a2-3)Gal(b1-4)GlcNAc(b1-3)Gal(b1-4)GlcNAc(b1-3)Gal(b1-4)GlcNAc(b1-2)Man(a1-6)]GalNAc
How it was run: as §1

[11] = target: Neu5Ac(a2-3)Gal(b1-4)GlcNAc(b1-3)Gal(b1-4)GlcNAc(b1-3)GalNAc
How it was run: as §1

[12] = target: Neu5Ac(a2-3)Gal(b1-4)GlcNAc(b1-3)Gal(b1-4)GlcNAc(b1-3)[Neu5Ac(a2-3)Gal(b1-4)GlcNAc(b1-3)Gal(b1-4)GlcNAc(b1-6)]GalNAc
How it was run: as §1

[13] = target: Neu5Ac(a2-3)Gal(b1-4)GlcNAc(b1-3)Gal(b1-4)GlcNAc(b1-6)[Gal(b1-3)]GalNAc
How it was run: as §1

[14] = target: Neu5Ac(a2-3)Gal(b1-4)GlcNAc(b1-3)Gal(b1-4)[Fuc(a1-3)]GlcNAc
How it was run: as §1

[15] = target: Neu5Ac(a2-3)Gal(b1-4)GlcNAc(b1-3)GalNAc
How it was run: as §1

[16] = target: Neu5Ac(a2-3)Gal(b1-4)GlcNAc(b1-3)[Neu5Ac(a2-3)Gal(b1-4)GlcNAc(b1-6)]GalNAc
How it was run: as §1

[17] = target: Neu5Ac(a2-3)Gal(b1-4)GlcNAc(b1-6)GalNAc
How it was run: as §1

[18] = target: Neu5Ac(a2-3)Gal(b1-4)GlcNAc(b1-6)[Gal(b1-3)]GalNAc
How it was run: as §1

[19] = target: Neu5Ac(a2-3)Gal(b1-4)GlcNAc(b1-6)[Neu5Ac(a2-3)Gal(b1-3)]GalNAc
How it was run: as §1

[20] = target: Neu5Ac(a2-3)Gal(b1-4)GlcNAc6S
How it was run: as §1

[21] = target: Neu5Ac(a2-3)Gal(b1-4)[Fuc(a1-3)]GlcNAc
How it was run: as §1

[22] = target: Neu5Ac(a2-3)Gal(b1-4)[Fuc(a1-3)]GlcNAc(b1-2)Man
How it was run: as §1

[23] = target: Neu5Ac(a2-3)Gal(b1-4)[Fuc(a1-3)]GlcNAc(b1-3)Gal
How it was run: as §1

[24] = target: Neu5Ac(a2-3)Gal(b1-4)[Fuc(a1-3)]GlcNAc(b1-3)Gal(b1-4)GlcNAc
How it was run: as §1

[25] = target: Neu5Ac(a2-3)Gal(b1-4)[Fuc(a1-3)]GlcNAc(b1-3)Gal(b1-4)[Fuc(a1-3)]GlcNAc(b1-3)Gal(b1-4)[Fuc(a1-3)]GlcNAc
How it was run: as §1

[26] = target: Neu5Ac(a2-3)Gal(b1-4)[Fuc(a1-3)]GlcNAc(b1-3)GalNAc
How it was run: as §1

[27] = target: Neu5Ac(a2-3)Gal(b1-4)[Fuc(a1-3)]GlcNAc(b1-6)[Gal(b1-3)]GalNAc
How it was run: as §1

[28] = target: Neu5Ac(a2-3)Gal(b1-4)[Fuc(a1-3)]GlcNAc(b1-6)[Neu5Ac(a2-3)Gal(b1-3)]GalNAc
How it was run: as §1

[29] = target: Neu5Ac(a2-3)Gal(b1-4)[Fuc(a1-3)]GlcNAc6S
How it was run: as §1

[30] = target: Neu5Ac(a2-3)Gal6S(b1-4)GlcNAc
How it was run: as §1

[31] = target: Neu5Ac(a2-3)Gal6S(b1-4)[Fuc(a1-3)]GlcNAc
How it was run: as §1

Neu5Ac(a2-3)GalNAc = target: Neu5Ac(a2-3)GalNAc
How it was run: as §1

[32] = target: Neu5Ac(a2-3)GalNAc(b1-4)GlcNAc
How it was run: as §1

[33] = target: Neu5Ac(a2-3)[GalNAc(b1-4)]Gal(b1-4)Glc
How it was run: as §1

[34] = target: Neu5Ac(a2-3)[GalNAc(b1-4)]Gal(b1-4)GlcNAc
How it was run: as §1

[35] = target: Neu5Ac(a2-3)[GalNAc(b1-4)]Gal(b1-4)GlcNAc(b1-3)GalNAc
How it was run: as §1

[36] = target: Neu5Ac(a2-3)[Neu5Ac(a2-6)]GalNAc
How it was run: as §1

B1: LlpA (Arthrobacter sp) (protein)
chain: MGSSHHHHHHSSGLVPRGSHMTLHPETALRPGAAATSPNSRYRLLYQTDGNLVLYGPDGPLWDSGTNGHGAGACIMQADGNLVLYGPNDEYVWDTETDNNPGSRLVIQDDGNAVIYRPDGSPLWATETCQPPGSADSHVLQSGSTLTPTHGIRSANGLYGLLYQTDGNLVFYGPDGPLWDSGTNGRGAGACIMQPDGNLVLYGPHDEYVWDTETDNNPGSRLVIQDDGNAVIYRPDGNPTWVTGTH
[1]
  glycan array binding signal (z-score): 0.29
[2]
  glycan array binding signal (z-score): -0.255
[3]
  glycan array binding signal (z-score): -0.992
[4]
  glycan array binding signal (z-score): -0.439
[5]
  glycan array binding signal (z-score): -0.555
[6]
  glycan array binding signal (z-score): 0.273
[7]
  glycan array binding signal (z-score): 0.79
[8]
  glycan array binding signal (z-score): -0.137
[9]
  glycan array binding signal (z-score): 0.461
[10]
  glycan array binding signal (z-score): 1.79
[11]
  glycan array binding signal (z-score): 0.223
[12]
  glycan array binding signal (z-score): -0.062
[13]
  glycan array binding signal (z-score): -1.08
[14]
  glycan array binding signal (z-score): -0.49
[15]
  glycan array binding signal (z-score): 0.071
[16]
  glycan array binding signal (z-score): 0.868
[17]
  glycan array binding signal (z-score): -0.779
[18]
  glycan array binding signal (z-score): -0.102
[19]
  glycan array binding signal (z-score): -0.847
[20]
  glycan array binding signal (z-score): -0.156
[21]
  glycan array binding signal (z-score): -0.619
[22]
  glycan array binding signal (z-score): -0.343
[23]
  glycan array binding signal (z-score): -0.27
[24]
  glycan array binding signal (z-score): -0.166
[25]
  glycan array binding signal (z-score): -0.008
[26]
  glycan array binding signal (z-score): 1.8
[27]
  glycan array binding signal (z-score): 1.65
[28]
  glycan array binding signal (z-score): -0.534
[29]
  glycan array binding signal (z-score): 0.447
[30]
  glycan array binding signal (z-score): -1.21
[31]
  glycan array binding signal (z-score): -0.518
Neu5Ac(a2-3)GalNAc
  glycan array binding signal (z-score): 0.659
[32]
  glycan array binding signal (z-score): -0.416
[33]
  glycan array binding signal (z-score): 0.446
[34]
  glycan array binding signal (z-score): -0.707
[35]
  glycan array binding signal (z-score): 0.75
[36]
  glycan array binding signal (z-score): -0.513
